Laboratory results as given in publication PMC2990700.

Amino acid sequences for entries named in this document (tags omitted). A change or cut given only in a name is not applied to a line headed by its entry.
UniProt Q9DCH4: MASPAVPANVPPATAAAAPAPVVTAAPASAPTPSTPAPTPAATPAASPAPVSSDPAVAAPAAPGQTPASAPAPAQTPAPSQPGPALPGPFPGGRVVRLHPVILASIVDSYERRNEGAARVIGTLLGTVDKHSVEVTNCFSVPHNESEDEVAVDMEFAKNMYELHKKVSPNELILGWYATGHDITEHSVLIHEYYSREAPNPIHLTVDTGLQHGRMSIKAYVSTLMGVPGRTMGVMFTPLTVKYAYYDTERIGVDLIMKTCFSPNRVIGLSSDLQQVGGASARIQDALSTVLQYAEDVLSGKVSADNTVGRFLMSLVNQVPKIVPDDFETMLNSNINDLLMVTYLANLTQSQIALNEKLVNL

Molecular target: T1, VSV-tagged Deltex1 (VSV-DTX) (UniProt Q86Y01)
T1 sequence: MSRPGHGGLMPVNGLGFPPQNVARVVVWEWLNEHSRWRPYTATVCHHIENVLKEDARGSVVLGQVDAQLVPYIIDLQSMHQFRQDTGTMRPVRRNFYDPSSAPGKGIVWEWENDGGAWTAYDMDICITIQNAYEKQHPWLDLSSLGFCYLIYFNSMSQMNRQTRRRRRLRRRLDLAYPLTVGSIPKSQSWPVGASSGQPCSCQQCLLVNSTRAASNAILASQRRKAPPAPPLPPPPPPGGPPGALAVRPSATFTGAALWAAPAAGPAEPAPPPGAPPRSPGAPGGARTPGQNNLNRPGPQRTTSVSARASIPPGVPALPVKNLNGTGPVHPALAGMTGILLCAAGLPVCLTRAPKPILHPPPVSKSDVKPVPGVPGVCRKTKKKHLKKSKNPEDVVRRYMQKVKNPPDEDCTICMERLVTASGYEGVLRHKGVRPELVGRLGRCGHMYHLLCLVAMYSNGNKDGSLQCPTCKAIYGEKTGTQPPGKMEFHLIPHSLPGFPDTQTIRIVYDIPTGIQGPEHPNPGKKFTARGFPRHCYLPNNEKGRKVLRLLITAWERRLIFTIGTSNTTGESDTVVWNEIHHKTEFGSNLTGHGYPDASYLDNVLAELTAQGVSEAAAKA
Assay: co-IP; HEK293T cotransfected with eIF3f forms and VSV-DTX; IP with anti-VSV, precipitates eluted with VSV peptide; Western blot

“HA-tagged murine eIF3f catalytic mutant (meIF3f Mut) (from UniProt Q9DCH4)” was tested, and the binding was “binds”.

Results are given in words; binding and its absence hold for the method and conditions named. Binding seen in cells or lysates may run through a third protein. Binding can be weak; no strength is given. Sequences can lack the tags named with a protein.
